These are yes or no findings as the source states them, for the method shown. In cells and extracts the contact can be indirect. Some entries that bind do so weakly or less than the wild type. For some assays here: Tags and fused reporters may be left off the sequences shown.

The chains behind the UniProt entries cited, without tags or fusion partners. Where a name states a change or a piece, a line headed by the entry shows the natural chain unless it says otherwise.
UniProt P13385: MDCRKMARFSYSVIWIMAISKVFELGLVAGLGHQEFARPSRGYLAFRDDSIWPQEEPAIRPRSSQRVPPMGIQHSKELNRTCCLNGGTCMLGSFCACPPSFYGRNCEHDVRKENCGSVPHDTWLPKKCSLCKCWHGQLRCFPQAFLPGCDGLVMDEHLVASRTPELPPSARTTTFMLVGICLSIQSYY

Consider two molecules from patent US20120101024A1, “Methods and Compositions for Differentiating Embryonic Stem Cells” (REGENERATIVE RESEARCH FOUNDATION, priority 2010, published 2012).

Experiment [1] concerns the target CRIPTO (human) (UniProt P13385). Nature of the experiment: co-immunoprecipitation from the membrane fraction of hESCs treated 1 hour with NPTX1-His conditioned media; Western blot. A general note: Immunoblotting shows a protein as a band on a membrane.
Experiment [2] has the same target. Briefly: co-immunoprecipitation with anti-CRIPTO antibody from culture media and cell membrane lysate; Western blot with anti-NPTX1.

B1: NPTX1-His protein (ligand)
chain: HHHHHHQDFGPTRFICTSVPVDADMCAASVAAGGAEELRSSVLQLRETVLQQKETILSQKETIRELTAKLGRCESQSTLDPGAGEARAGGGRKQPGSGKNTMGDLSRTPAAETLSQLGQTLQSLKTRLENLEQYSRLNSSSQTNSLKDLLQSKIDELERQVLSRVNTLEEGKGGPRNDTEERVKIETALTSLHQRISELEKGQKDNRPGDKFQLTFPLRTNYMYAKVKKSLPEMYAFTVCMWLKSSATPGVGTPFSYAVPGQANELVLIEWGNNPMEILINDKVAKLPFVINDGKWHHICVTWTTRDGVWEAYQDGTQGGSGENLAPYHPIKPQGVLVLGQEQDTLGGGFDATQAFVGELAHFNIWDRKLTPGEVYNLATCSTKALSGNVIAWAESHIEIYGGATKWTFEACRQIN
As for B1, the binding entry with CRIPTO (human) [1] is given as “binds”.

B2: NPTX1 (ligand)
chain: QDFGPTRFICTSVPVDADMCAASVAAGGAEELRSSVLQLRETVLQQKETILSQKETIRELTAKLGRCESQSTLDPGAGEARAGGGRKQPGSGKNTMGDLSRTPAAETLSQLGQTLQSLKTRLENLEQYSRLNSSSQTNSLKDLLQSKIDELERQVLSRVNTLEEGKGGPRNDTEERVKIETALTSLHQRISELEKGQKDNRPGDKFQLTFPLRTNYMYAKVKKSLPEMYAFTVCMWLKSSATPGVGTPFSYAVPGQANELVLIEWGNNPMEILINDKVAKLPFVINDGKWHHICVTWTTRDGVWEAYQDGTQGGSGENLAPYHPIKPQGVLVLGQEQDTLGGGFDATQAFVGELAHFNIWDRKLTPGEVYNLATCSTKALSGNVIAWAESHIEIYGGATKWTFEACRQIN
For B2, in the experiment with CRIPTO (human) [2], the binding entry is reported as “binds”.
